For 2 substances, binding results are on record in article PMC4974663.

By UniProt entry, the sequences of proteins in these tests, tags left out.
UniProt Q9Y3D8: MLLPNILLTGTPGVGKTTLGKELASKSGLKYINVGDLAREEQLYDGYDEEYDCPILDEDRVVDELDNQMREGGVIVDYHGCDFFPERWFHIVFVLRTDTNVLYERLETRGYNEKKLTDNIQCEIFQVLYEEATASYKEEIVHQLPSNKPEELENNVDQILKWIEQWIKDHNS

Assay [1] deals with T1, Nob1 (in the GST pull-down with hCINAP) (UniProt Q9ULX3).
T1 sequence: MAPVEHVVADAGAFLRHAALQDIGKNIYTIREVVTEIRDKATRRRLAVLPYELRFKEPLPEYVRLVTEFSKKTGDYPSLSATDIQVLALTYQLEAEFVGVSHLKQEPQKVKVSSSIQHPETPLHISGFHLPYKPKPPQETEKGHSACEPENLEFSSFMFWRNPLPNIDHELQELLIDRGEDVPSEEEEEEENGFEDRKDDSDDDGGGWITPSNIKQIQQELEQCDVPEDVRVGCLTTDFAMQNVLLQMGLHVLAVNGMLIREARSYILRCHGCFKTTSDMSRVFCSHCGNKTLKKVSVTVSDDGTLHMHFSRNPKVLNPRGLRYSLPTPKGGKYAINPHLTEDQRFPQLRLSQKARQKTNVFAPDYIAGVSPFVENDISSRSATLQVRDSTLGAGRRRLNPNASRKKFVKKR
Briefly: pull-down; in vitro GST pull-down of hCINAP and Nob1; which protein carried GST is not told; both purified.

For assay [2], the target named is T2, Nob1 (in the co-IP with hCINAP) (UniProt Q9ULX3).
T2 sequence: T1 sequence
In words: co-IP; co-IP of Nob1 and hCINAP (Supplementary Fig. 3i); cells and constructs not told.

No constants are given. Whether binding was seen depends on the method and setting. For some assays here: Binding seen in cells or lysates may run through a third protein. Some binding calls cover weakened binding; strength is not graded here. For some assays here: Where a sequence is shown, tags or fusion partners need not be part of it.

In the case of “hCINAP (in the GST pull-down with Nob1) (from UniProt Q9Y3D8 1-172) (enzyme)”, the binding result in assay [1] is “binds”. For the substance “hCINAP (in the co-IP with Nob1) (from UniProt Q9Y3D8 1-172) (enzyme)”, in assay [2], the binding result is recorded as “binds”.
